At least one structure is not confirmed: it was looked up by name or label, or the drawing left a doubt.
System: IMPDH
Test: IMPDH inhibition activity (A340, IMP substrate, NAD)
Type: biochemical
Details: compound at 10 μg/mL
Method: Measurement of IMPDH Inhibitor Activity
In 96-well plates, use IMP as the substrate and NAD, NADH as chromogenic agents to determine the activity of the compounds described in this invention as IMPDH inhibitor. Add 2 μl of each of the tested sample solution, 20 μl enzyme extract and 30 μl IMP into a sample well in the 96-well plates; 2 μl DMSO and 30 μl IMP solution into a control well; 2 μl DMSO and 20 μl IMPDH buffer instead of the enzyme extract and 30 μl IMP solution into a blank well. Keep plates at constant 37° C. for 15 min, measure absorbance values A340 (OD1) of the solutions in various wells; subsequently, add into each well with 50 μl NAD, keep at constant 37° C. for 50 min, then measure A340 (OD2) values. Calculate IMPDH inhibition rates of samples as follows: Inhibition (%)=[(OD2−OD1)control−(OD2−OD1)Sample]/[(OD2−OD1)control−(OD2−OD1)Blank]×100%.

Compound: COc1cc(/N=C/c2cccs2)ccc1-c1cnco1 [Compound 9, N-(thien-2-ylmethylene)-3-methoxy-4-(oxazol-5-yl) aniline]
- inhibition rate (%) 10 μg/mL: 38.1%
